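Genome-wide siRNA knockdown in TC32 Ewing sarcoma cells, comparing luciferase light from an NR0B1-promoter reporter with a CMV-promoter reporter 48 hours after transfection.
Each siRNA was applied at 20 nM.
A z-score of the log NR0B1-over-CMV signal, less the median of siRNAs with the same seed; more negative means a stronger specific loss of the NR0B1 reporter.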

This is part of the screen; most of the strongest results are not listed here.
Sequences are the guide (antisense) strand, without overhang.

AGAAGAAGCGGGAUGCAGC against LOC401317 read seed-corrected z-score 0.9032. For AAUAGAAUCUGUACAAUUC against PROSER3 the result was seed-corrected z-score 0.1123. Result for UAGAUAACCAAUAUAUGCC against SMIM8 was seed-corrected z-score -0.5411. Result for UCAUUAGCAAGGAUUCAUC against PPP6R3 was seed-corrected z-score 0.6085. AAGGGAAUGGUGAAUGCUG against LOC642249 gave seed-corrected z-score -1.114.

For UAUCGAGCAAACCACUCCC against KIAA0513 the result was seed-corrected z-score -0.4372. With UUUCGUAUGGACUAAAUUC against PLA2G4A the assay gave seed-corrected z-score 0.2331. For UCAGAUCACAGCAGUGACG against EBLN1 the result was seed-corrected z-score 0.07664. Result for AGUCAUUACACUUCGAUGG against C16orf70 was seed-corrected z-score 0.2018. AUCCGAGUAAGCAUAGGCC against ZBTB49 read seed-corrected z-score -0.577.

Result for AUAGUGUCCACGUACAACC against RPL26 was seed-corrected z-score 0.7002. With AAAGCUAAAUAGUUGCAGC against WDR45B the assay gave seed-corrected z-score -0.5199. AUCUCAUUGAGGUAGUAGC against SPATC1L gave seed-corrected z-score 0.2607. UUGUGCACAGUAGCUGUGG against LOC646588 read seed-corrected z-score -1.055. For UAAACUUUCGGACAGAGUC against EIF3K the result was seed-corrected z-score -0.05867.

For AAUUGUGAUAUUUCAGGUG against SLC15A2 the result was seed-corrected z-score -0.9006. Result for AGUUUUACUAAUAUCCUCC against PCDHB16 was seed-corrected z-score -0.3829. Result for UAAUCUGUAAGUCCUCAGG against TTC29 was seed-corrected z-score -0.2023. For UUACCAUUACCUUGUAUUC against LGALS14 the result was seed-corrected z-score -0.9432. UACCAUCCAGUCGUAACCG against SCML2 read seed-corrected z-score 0.1866.

For UUGGUAAGUUCGGUUCUCG against FAM168A the result was seed-corrected z-score -0.1615. UUGGAGACGAAGACAAGCC against MCM9 gave seed-corrected z-score -0.5612. For UUAAAGACCAAAAGUGUGG against HPGDS the result was seed-corrected z-score -0.1202. Result for UUCCUAUUCCAGAUGAUCC against CLPB was seed-corrected z-score -0.6977. UAGAAUGGGACCAAUAUCC against HSDL1 gave seed-corrected z-score -0.3969.

With UGUUCUGCCGCUGUUUUGC against ATP8B2 the assay gave seed-corrected z-score -0.4546. UUUUGCAUAAAUGAUUCUG against CDC37L1 gave seed-corrected z-score -0.4022. With UACUAGUCAUUUCCUGUCC against FSCB the assay gave seed-corrected z-score -0.35. UUACAUAUCUGCUUGGGCU against NOTCH4 read seed-corrected z-score 0.6969. Result for UUAGCAACAAUUACCAUUU against THBD was seed-corrected z-score 0.6964.

With UAUGCGAGCUCCCAAUUGC against FOXN3-AS1 the assay gave seed-corrected z-score -0.8601. For UUCGAUGUAAAGUAAAGCC against FBXO45 the result was seed-corrected z-score 1.358.

Repeated from the top, 3 entries:

Sequence	target gene	seed-corrected z-score
AGAAGAAGCGGGAUGCAGC	LOC401317	0.9032
AAUAGAAUCUGUACAAUUC	PROSER3	0.1123
UAGAUAACCAAUAUAUGCC	SMIM8	-0.5411

From PubChem BioAssay record AID1159506 (NCATS, 2015).